# About 22,000 (6.9%) of roughly 320,000 compounds were called active. This list was built around the results that the source calls inconclusive (neither active nor inactive); the mix of calls is not that of the screen. The call rests on the fitted dose curve; in most records, active means well fitted inhibition curve with a large enough effect; inconclusive means small, poorly fitted or top-dose-only effect, or another doubt; inactive means no such curve, though single readings can be large or run the other way. Where the call is inconclusive, the potency comes from a doubtful curve fit.
# Experiment: Primary qHTS for delayed death inhibitors of the malarial parasite plastid, 96 hour incubation
# Conditions: P. falciparum luciferase reporter growth; series mostly up to 28.7 µM; activity change, negative = inhibition: at the top concentration
# Outline: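 Compounds incubated with erythrocytes infected by luciferase-expressing P. falciparum (2% hematocrit, 0.05% parasitemia final) for 96 hours, 37 C in 5% CO2. Growth inhibition scored as decreased luciferase luminescence.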
# On the % scale 0 is the no-effect control and ±100 the full control effect; potency means the concentration at half of the fitted maximal effect.
Structure (SMILES),"activity change, negative = inhibition",Potency
CCCNS(=O)(=O)c1ccc(NC(=O)Cc2cccs2)cc1,inactive: 43.7%,
Cc1ccc(C(=O)CCC(=O)O)cc1,inactive: 17.3%,
CCOc1ccc2oc(C(=O)N3CCN(c4ccccc4OCC)CC3)c(C)c2c1,,"inconclusive: 10.4 µM [inhibitor, single point]"
Cc1ccc(NC(=S)N(CCN(C)C)C(C)c2cccnc2)c(C)c1 (configuration not stated),,"inconclusive: 16.5 µM [inhibitor, single point]"
COc1cccc(OCc2cc(C(=O)NCc3cnc4ccccn34)no2)c1,,"inconclusive: 2.08 µM [inhibitor, full curve, poor fit]"
O=C(NC1CCN(Cc2ccccc2)CC1)c1cc(-c2ccccn2)nc2ccccc12,,"inconclusive: 13.1 µM [inhibitor, partial curve, poor fit]"
O=C(CCN(NC(=O)c1ccccc1)C1=NS(=O)(=O)c2ccccc21)NC1CCCCC1,,"inconclusive: 2.62 µM [inhibitor, single point]"
Cc1ccc(S(=O)(=O)N2CCCCC2)cc1C(=O)OC(C)C(=O)NC1CCCCC1C (configuration not stated),,active: 13.1 µM
COc1ccc(-c2nnc(SCC(=O)NNC(=O)c3ccc(C)cc3)o2)cc1,,"inconclusive: 16.5 µM [inhibitor, single point]"
Fc1cccc2sc(Nc3nc4c(F)cccc4s3)nc12,,"inconclusive: 2.94 µM [inhibitor, single point]"
COc1c(Cl)cc(Cl)cc1C(=O)Nc1ccc(C(=O)O)cc1,inactive: -18.5%,
COc1ccc(NC(=O)C2CC(=O)N(c3cccc(C)c3C)C2)cc1 (configuration not stated),,"inconclusive: 11.7 µM [inhibitor, single point]"
O=C(CSc1nc2cc(C(F)(F)F)ccc2n1Cc1ccccc1)NC1CCS(=O)(=O)C1 (configuration not stated),,active: 11.7 µM
COc1ccccc1NC(=S)NC(=O)/C=C/c1cccs1,,"inconclusive: 18.5 µM [inhibitor, single point]"
Cc1c(Cl)cccc1NC(=S)NCC(C)C,,active: 3.29 µM
O=C(Nc1cccc(-c2nc3ncccc3o2)c1)c1ccco1,,"inconclusive: 18.5 µM [inhibitor, single point]"
CN(C)c1ccc(NC(=O)CN2CCc3ccccc3C2)cc1,inactive: 73.6%,
O=C(NCCN1CCCCC1)Nc1cccc(F)c1,inactive: -12.2%,
NC(=O)c1ccccc1N/C=C/C(=O)c1ccc(Cl)cc1,inactive: 161%,
Cc1ccc(C(=O)COC(=O)c2ccncc2)cc1[N+](=O)[O-],,active: 9.28 µM
CC(C)(C)c1ccc(OCCCC(=O)NNC(=O)c2ccccc2O)cc1,,"inconclusive: 18.5 µM [inhibitor, single point]"
COc1ccc(C)cc1NC(=O)C(Sc1nnc(-c2ccncc2)n1-c1ccc(Cl)cc1)c1ccccc1 (configuration not stated),,active: 10.4 µM
Cc1ccc(C(=O)NC(=S)N2CCCCCC2)cc1,,"inconclusive: 18.5 µM [inhibitor, single point]"
O=C(Cn1nnc(-c2ccccc2)n1)Nc1ccccc1N1CCOCC1,,"inconclusive: 3.7 µM [inhibitor, partial curve, poor fit]"

# Gathered by group: the compounds so far containing a thiophene ring, fused or not (two)
Structure (SMILES),"activity change, negative = inhibition",Potency
CCCNS(=O)(=O)c1ccc(NC(=O)Cc2cccs2)cc1,inactive: 43.7%,
COc1ccccc1NC(=S)NC(=O)/C=C/c1cccs1,,"inconclusive: 18.5 µM [inhibitor, single point]"

# Further compounds follow:

Structure (SMILES),"activity change, negative = inhibition",Potency
CC(C(=O)N1CCc2ccccc21)N1CCN(S(=O)(=O)c2cccs2)CC1 (configuration not stated),,"inconclusive: 8.28 µM [inhibitor, single point]"
CCC(C(=O)Nc1nnc(-c2ccco2)s1)c1ccccc1 (configuration not stated),,active: 11.7 µM
COC(=O)C(C)C1Sc2ccccc2NC1=O (configuration not stated),,"inconclusive: 18.5 µM [inhibitor, partial curve, poor fit]"
O=C(NC1CCCc2ccccc21)N[C@@H](Cc1ccccc1)C(=O)O (some centres not stated),inactive: 0.547%,
Cc1ccc(C)c(NC(=S)N2CCN(S(C)(=O)=O)CC2)c1,inactive: 20.3%,
Cc1nc2sc(C(c3cccc(F)c3)N3CCCCC3)c(O)n2n1 (configuration not stated),,"inconclusive: 13.1 µM [inhibitor, single point]"
CCOc1ccc(S(=O)(=O)N2CCC(c3ccccc3)CC2)cc1C(=O)O,inactive: 12.8%,
CCOc1ccccc1NC(=O)C(OC(=O)c1ccccc1)c1ccccc1 (configuration not stated),,"inconclusive: 18.5 µM [inhibitor, single point]"
COC(=O)C1=C(N)c2ccccc2C1(C#N)c1ccccc1 (configuration not stated),,"inconclusive: 11.7 µM [inhibitor, single point]"
COc1cccc(C(=O)Nc2ccccc2C(=O)NC2CC2)c1,,"inconclusive: 9.28 µM [inhibitor, single point]"
O=S(=O)([N-]c1nc2ccccc2nc1-[n+]1ccc(Cc2ccccc2)cc1)c1ccc(Br)s1,,active: 13.1 µM
CCOC(=O)c1cnc2c(c(C)nn2CC)c1Cl,,"inconclusive: 16.5 µM [inhibitor, single point]"
CCCCNC(=O)CSc1nc2ccc(NC(=O)CSc3nnc(COc4ccccc4C)n3C)cc2s1,,"inconclusive: 3.29 µM [inhibitor, full curve]"
CN1CCN(c2ccc(S(=O)(=O)N3CCCCC3)cc2NC(=O)Cc2ccc(Cl)cc2)CC1,,"inconclusive: 18.5 µM [inhibitor, single point]"
Cc1ccc2nc(N(CCCN(C)C)C(=O)c3ccc(S(=O)(=O)N4CCCCCC4)cc3)sc2c1,,"inconclusive: 14.7 µM [inhibitor, single point]"
CC(=O)Oc1ccc(N2C(=O)C3C(C2=O)C(C(=O)c2ccc(Cl)cc2)N2CCCC32)cc1 (configuration not stated),inactive: 0.133%,
Cc1cc(NC(=O)COC(=O)C2COc3ccccc3O2)no1 (configuration not stated),,active: 10.4 µM
CCOC(=O)C1(Cc2cccc(Cl)c2)CCCN(C(=O)c2cccc(C)n2)C1 (configuration not stated),,"inconclusive: 18.5 µM [inhibitor, single point]"
Cc1nc2ncnn2c(N2CCN(C(=O)c3cccc(F)c3)CC2)c1Cc1ccccc1,,"inconclusive: 10.4 µM [inhibitor, partial curve, poor fit]"
c1ccc2c(c1)oc1c(Nc3ccc(CN4CCOCC4)cc3)ncnc12,,"inconclusive: 14.7 µM [inhibitor, single point]"
COC(=O)c1ccc(NC(=O)CCN2CCN(CCC(=O)Nc3ccc(C(=O)OC)cc3)CC2)cc1,,"inconclusive: 14.7 µM [inhibitor, partial curve, poor fit]"
COc1cc(/C=N/NS(=O)(=O)c2ccc(Br)cc2)ccc1O,,"inconclusive: 18.5 µM [inhibitor, single point]"
COC(=O)/C=C1/S/C(=N/NC(=O)c2ccccc2OC)NC1=O,,active: 11.7 µM
COCC1CCN(C(=O)c2cc(COc3ccc(C)c(C)c3)on2)C1 (configuration not stated),,"inconclusive: 18.5 µM [inhibitor, partial curve, poor fit]"

Structure (SMILES),"activity change, negative = inhibition",Potency
Clc1ccccc1C1=Nn2c(nnc2-c2ccncc2)SC1,,"inconclusive: 11.7 µM [inhibitor, single point]"
COCCNC(=O)c1csc(Nc2cccc3ccccc23)n1,,"inconclusive: 13.1 µM [inhibitor, single point]"
O=C(CN1CCC(n2nnc3cc(F)ccc32)CC1)NCc1ccco1,inactive: -0.895%,
CCCc1cc(C(=O)Nc2ccc(F)cc2F)no1,inactive: 9.21%,
c1ccc(-c2ncc(CN3CCN(c4ccccn4)CC3)[nH]2)cc1,inactive: 12.1%,
COc1ccc(-c2csc(NC(=O)C(CC(=O)O)N3CCOCC3)n2)cc1 (configuration not stated),,active: 11.7 µM
CC(C)(C)CC(=O)O/N=C(\N)c1ccncc1,,"inconclusive: 18.5 µM [inhibitor, single point]"
COc1ccc(C(=O)C[n+]2cccc3cc(C)ccc32)cc1,,"inconclusive: 18.5 µM [inhibitor, single point]"
COc1ccc(CCNC(=O)CS(=O)(=O)c2cn(CC(=O)N(C(C)C)C(C)C)c3ccccc23)cc1OC,,active: 10.4 µM
COc1ccc(-c2nn3c(C4CCCCC4)nnc3s2)cc1OC,,"inconclusive: 18.5 µM [inhibitor, single point]"
O=C(CSc1cn(Cc2ccccc2)c2ccccc12)Nc1nccs1,,"inconclusive: 18.5 µM [inhibitor, single point]"
CN1CCN(CC(=O)C23CC4CC(CC(C4)C2)C3)CC1,,"inconclusive: 2.33 µM [inhibitor, partial curve, poor fit]"
O=C(NCCc1cccs1)C1CC(c2ccccc2[N+](=O)[O-])=NO1 (configuration not stated),inactive: 39.2%,
Cc1ccc(S(=O)(=O)/N=c2\sccn2C)cc1,inactive: 135%,
COc1ccc(CN2CCCC(CNC(=O)c3ccc(F)cc3)C2)cc1OC (configuration not stated),,"inconclusive: 9.28 µM [inhibitor, partial curve]"
CC1=C(C(=O)OCc2ccccc2)C(c2ccc(C(C)(C)C)cc2)NC(=O)N1CCCCCC(=O)O (configuration not stated),,"inconclusive: 13.1 µM [inhibitor, single point]"
c1ccc2c(c1)COC(CNC1CCCCC1)OC2,inactive: 3.87%,
O=C(CSc1nnc2c(n1)[nH]c1ccccc12)Nc1ccc(N2CCOCC2)cc1,inactive: -6.63%,
CSc1ccc(OC2CCCCC2NS(=O)(=O)c2ccc(Cl)cc2)cc1 (configuration not stated),,"inconclusive: 11.7 µM [inhibitor, single point]"
O=C(Nc1cccc(S(=O)(=O)N2CCCCC2)c1)c1ccco1,,"inconclusive: 9.28 µM [inhibitor, partial curve, poor fit]"
CC(=O)Nc1ccc2nc(CN3CCN(Cc4ccc(F)cc4)C(CCO)C3)ccc2c1 (configuration not stated),,"inconclusive: 18.5 µM [inhibitor, single point]"
CCC(C)(C)NC(=O)C(c1ccc(O)cc1)N(C(=O)Cn1nnc2ccccc21)c1ccc(NC(C)=O)cc1 (configuration not stated),,"inconclusive: 11.7 µM [inhibitor, partial curve]"
O=C(N/N=C/c1cccnc1)c1ccccc1OCc1cccc(Br)c1,inactive: -86.4%,
CC(NC(=O)c1ccccc1NC(=O)CSc1nnnn1C)c1ccccc1 (configuration not stated),,"inconclusive: 13.1 µM [inhibitor, single point]"

# Reference: PubChem BioAssay AID504834 (National Center for Advancing Translational Sciences (NCATS), 2011)
